Laboratory results: PMC9302817, “VEGF receptor heterodimers and homodimers are differentially expressed in neuronal and endothelial cell types” (PLoS ONE, 2022)
Results are given in words; binding and its absence hold for the method and conditions named. In cells and extracts the contact can be indirect. Some binding calls cover weakened binding; strength is not graded here. Values belong to the molecule of their own block, whether it stands above or below them.

Chains of the proteins cited; added tags and fusions are not shown. Residues count along the entry.
UniProt P17948, residues 27-1338: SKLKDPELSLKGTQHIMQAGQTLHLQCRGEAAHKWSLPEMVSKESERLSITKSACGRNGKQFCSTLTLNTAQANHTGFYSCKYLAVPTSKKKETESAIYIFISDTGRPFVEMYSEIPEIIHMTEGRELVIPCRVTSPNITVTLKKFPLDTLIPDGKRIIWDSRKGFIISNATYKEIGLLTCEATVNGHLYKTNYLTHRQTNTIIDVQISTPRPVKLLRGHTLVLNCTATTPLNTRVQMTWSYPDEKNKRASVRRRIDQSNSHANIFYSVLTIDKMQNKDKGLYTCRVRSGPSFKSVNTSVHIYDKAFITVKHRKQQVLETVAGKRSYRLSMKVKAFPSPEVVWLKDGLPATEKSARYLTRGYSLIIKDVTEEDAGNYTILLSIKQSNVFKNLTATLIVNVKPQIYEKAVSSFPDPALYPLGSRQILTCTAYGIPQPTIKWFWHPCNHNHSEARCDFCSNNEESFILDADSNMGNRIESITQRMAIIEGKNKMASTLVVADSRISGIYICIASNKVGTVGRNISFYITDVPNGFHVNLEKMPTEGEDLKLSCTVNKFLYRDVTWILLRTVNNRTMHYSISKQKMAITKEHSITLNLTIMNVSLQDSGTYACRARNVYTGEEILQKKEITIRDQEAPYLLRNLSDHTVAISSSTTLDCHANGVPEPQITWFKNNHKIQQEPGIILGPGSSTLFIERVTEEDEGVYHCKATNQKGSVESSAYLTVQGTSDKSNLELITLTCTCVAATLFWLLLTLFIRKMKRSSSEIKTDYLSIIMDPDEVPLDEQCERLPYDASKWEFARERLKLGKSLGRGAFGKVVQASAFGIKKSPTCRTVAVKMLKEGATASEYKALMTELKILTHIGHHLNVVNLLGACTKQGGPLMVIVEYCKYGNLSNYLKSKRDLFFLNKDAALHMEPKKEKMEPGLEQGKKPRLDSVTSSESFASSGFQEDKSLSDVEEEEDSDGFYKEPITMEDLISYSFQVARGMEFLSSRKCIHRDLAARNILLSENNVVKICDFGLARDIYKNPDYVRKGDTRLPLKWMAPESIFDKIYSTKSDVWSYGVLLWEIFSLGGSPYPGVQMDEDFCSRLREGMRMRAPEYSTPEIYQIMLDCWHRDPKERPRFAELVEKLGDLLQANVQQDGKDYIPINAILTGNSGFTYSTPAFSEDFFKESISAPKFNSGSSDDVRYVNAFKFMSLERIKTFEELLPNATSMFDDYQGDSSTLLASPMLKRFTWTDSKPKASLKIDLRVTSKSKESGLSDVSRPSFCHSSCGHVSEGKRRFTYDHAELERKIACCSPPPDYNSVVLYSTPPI
UniProt P35968, residues 20-1356: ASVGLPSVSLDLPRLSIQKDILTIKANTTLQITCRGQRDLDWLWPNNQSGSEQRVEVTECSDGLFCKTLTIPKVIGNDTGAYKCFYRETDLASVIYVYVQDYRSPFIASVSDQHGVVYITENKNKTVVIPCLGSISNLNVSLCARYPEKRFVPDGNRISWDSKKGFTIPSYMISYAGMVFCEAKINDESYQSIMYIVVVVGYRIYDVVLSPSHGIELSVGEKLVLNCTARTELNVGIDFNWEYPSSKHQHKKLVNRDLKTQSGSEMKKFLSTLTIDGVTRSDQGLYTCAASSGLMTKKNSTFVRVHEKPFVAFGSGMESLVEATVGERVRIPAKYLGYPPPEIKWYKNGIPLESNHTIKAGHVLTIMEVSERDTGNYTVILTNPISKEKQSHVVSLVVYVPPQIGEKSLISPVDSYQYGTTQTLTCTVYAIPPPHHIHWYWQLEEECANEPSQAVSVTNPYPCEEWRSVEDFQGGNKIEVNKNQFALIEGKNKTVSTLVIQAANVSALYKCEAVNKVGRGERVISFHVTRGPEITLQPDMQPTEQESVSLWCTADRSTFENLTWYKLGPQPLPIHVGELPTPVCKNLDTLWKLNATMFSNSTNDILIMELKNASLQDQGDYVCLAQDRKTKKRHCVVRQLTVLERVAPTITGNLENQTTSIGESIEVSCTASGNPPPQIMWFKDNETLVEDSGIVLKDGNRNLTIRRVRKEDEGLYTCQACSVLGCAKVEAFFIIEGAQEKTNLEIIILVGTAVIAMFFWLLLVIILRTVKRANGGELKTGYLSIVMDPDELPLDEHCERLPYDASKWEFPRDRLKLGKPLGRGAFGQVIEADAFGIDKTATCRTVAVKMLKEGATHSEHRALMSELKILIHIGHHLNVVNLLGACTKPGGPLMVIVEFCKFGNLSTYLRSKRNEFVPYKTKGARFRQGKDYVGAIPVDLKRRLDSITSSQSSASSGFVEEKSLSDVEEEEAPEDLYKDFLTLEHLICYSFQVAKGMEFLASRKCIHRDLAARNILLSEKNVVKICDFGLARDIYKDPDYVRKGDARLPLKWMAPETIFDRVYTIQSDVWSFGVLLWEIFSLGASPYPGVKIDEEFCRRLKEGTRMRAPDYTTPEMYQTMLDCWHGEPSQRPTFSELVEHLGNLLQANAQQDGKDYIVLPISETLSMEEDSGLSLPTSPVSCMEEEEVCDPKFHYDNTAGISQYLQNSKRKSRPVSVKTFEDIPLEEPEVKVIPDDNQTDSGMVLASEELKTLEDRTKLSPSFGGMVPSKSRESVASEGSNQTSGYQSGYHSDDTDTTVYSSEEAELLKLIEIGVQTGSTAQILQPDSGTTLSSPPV
UniProt O08775, residues 20-1343: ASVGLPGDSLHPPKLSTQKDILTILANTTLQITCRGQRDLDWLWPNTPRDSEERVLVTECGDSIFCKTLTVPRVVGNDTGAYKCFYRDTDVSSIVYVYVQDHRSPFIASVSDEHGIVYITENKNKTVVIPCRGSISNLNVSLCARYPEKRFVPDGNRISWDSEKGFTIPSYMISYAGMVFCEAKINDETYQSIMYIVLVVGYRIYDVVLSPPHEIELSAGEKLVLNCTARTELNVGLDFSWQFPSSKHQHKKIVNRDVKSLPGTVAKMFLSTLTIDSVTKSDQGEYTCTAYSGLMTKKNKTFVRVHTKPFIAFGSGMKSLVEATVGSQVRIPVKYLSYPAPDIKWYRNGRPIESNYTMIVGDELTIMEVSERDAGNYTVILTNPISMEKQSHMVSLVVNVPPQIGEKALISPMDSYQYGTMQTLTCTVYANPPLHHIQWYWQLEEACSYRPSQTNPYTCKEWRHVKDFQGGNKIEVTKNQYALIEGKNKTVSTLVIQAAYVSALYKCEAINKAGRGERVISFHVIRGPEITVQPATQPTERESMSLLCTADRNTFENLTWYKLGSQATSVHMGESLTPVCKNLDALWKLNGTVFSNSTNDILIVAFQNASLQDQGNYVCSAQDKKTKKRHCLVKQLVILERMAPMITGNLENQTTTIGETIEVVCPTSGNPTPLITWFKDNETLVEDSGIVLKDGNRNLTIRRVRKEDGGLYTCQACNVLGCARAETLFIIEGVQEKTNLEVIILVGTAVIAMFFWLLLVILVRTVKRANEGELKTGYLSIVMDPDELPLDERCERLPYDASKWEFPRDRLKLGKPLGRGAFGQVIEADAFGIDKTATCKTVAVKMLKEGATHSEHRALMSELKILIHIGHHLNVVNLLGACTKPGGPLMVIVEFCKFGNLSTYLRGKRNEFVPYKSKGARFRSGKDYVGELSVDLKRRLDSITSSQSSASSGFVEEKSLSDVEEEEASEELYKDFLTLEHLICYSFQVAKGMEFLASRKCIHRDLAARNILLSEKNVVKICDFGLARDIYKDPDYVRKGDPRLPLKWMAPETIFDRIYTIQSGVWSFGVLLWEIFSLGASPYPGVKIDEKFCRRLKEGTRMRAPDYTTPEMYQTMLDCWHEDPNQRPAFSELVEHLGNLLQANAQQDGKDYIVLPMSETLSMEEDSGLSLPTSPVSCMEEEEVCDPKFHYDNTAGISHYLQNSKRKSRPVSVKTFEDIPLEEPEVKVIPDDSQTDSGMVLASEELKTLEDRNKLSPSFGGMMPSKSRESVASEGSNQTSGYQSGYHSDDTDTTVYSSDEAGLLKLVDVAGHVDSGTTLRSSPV

Columns and labels:
[1] = molecular target: VEGFR1 (human, endogenous in HUVEC) (human (endogenous in HUVEC)) (UniProt P17948); test: co-IP; cell lysates (PC12, MAEC, MVEC, HUVEC) in modified RIPA buffer, immunoprecipitated with rat anti-VEGFR1 on Protein G Dynabeads, blot probed with rabbit anti-VEGFR2; treated with vehicle, VEGF-A or VEGF-B; bead-only controls
[2] = molecular target: T1, VEGFR1 (rat, endogenous in PC12 neuronal cells) (rat (endogenous in PC12)) (UniProt P53767); test: as above
T1 sequence: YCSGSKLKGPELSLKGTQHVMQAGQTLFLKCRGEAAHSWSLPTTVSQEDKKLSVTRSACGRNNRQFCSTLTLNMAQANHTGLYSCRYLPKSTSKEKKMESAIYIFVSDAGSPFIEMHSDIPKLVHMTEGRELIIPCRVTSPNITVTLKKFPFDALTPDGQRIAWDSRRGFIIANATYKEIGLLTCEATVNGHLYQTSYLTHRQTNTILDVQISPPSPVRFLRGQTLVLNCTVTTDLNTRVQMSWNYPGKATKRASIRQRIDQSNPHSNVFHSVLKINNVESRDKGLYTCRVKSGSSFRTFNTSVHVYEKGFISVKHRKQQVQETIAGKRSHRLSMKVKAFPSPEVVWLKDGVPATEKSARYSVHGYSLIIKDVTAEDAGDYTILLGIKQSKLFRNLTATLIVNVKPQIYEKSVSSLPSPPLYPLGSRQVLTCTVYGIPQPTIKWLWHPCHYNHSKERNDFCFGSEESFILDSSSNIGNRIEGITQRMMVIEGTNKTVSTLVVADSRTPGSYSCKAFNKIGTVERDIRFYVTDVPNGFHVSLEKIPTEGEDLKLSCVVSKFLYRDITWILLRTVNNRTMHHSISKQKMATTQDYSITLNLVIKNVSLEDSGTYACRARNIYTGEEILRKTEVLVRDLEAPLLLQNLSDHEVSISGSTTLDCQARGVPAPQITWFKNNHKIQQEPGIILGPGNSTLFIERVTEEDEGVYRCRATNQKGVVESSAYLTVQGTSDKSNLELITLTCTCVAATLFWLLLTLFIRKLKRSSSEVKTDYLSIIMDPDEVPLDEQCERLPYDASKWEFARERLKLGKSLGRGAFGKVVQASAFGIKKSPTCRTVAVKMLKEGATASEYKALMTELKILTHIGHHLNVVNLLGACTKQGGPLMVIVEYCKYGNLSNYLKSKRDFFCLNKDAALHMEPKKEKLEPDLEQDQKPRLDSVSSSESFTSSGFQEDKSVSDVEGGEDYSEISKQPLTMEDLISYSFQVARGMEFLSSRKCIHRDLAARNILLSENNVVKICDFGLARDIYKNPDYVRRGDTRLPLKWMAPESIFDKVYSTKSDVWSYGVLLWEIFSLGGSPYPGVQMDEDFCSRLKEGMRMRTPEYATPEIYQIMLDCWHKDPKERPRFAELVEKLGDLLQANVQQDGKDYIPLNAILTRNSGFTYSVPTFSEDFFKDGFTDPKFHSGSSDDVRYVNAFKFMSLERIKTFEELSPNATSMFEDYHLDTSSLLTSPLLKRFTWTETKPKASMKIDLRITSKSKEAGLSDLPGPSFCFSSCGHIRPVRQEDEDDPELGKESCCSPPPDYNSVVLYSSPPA

[3] = molecular target: T2, VEGFR1 (mouse, endogenous in MAEC, MVEC, trigeminal ganglion neurons and mouse tissues) (mouse (endogenous in MAEC, MVEC, trigeminal ganglion neurons and mouse tissues)) (UniProt P35969); test: as above
T2 sequence: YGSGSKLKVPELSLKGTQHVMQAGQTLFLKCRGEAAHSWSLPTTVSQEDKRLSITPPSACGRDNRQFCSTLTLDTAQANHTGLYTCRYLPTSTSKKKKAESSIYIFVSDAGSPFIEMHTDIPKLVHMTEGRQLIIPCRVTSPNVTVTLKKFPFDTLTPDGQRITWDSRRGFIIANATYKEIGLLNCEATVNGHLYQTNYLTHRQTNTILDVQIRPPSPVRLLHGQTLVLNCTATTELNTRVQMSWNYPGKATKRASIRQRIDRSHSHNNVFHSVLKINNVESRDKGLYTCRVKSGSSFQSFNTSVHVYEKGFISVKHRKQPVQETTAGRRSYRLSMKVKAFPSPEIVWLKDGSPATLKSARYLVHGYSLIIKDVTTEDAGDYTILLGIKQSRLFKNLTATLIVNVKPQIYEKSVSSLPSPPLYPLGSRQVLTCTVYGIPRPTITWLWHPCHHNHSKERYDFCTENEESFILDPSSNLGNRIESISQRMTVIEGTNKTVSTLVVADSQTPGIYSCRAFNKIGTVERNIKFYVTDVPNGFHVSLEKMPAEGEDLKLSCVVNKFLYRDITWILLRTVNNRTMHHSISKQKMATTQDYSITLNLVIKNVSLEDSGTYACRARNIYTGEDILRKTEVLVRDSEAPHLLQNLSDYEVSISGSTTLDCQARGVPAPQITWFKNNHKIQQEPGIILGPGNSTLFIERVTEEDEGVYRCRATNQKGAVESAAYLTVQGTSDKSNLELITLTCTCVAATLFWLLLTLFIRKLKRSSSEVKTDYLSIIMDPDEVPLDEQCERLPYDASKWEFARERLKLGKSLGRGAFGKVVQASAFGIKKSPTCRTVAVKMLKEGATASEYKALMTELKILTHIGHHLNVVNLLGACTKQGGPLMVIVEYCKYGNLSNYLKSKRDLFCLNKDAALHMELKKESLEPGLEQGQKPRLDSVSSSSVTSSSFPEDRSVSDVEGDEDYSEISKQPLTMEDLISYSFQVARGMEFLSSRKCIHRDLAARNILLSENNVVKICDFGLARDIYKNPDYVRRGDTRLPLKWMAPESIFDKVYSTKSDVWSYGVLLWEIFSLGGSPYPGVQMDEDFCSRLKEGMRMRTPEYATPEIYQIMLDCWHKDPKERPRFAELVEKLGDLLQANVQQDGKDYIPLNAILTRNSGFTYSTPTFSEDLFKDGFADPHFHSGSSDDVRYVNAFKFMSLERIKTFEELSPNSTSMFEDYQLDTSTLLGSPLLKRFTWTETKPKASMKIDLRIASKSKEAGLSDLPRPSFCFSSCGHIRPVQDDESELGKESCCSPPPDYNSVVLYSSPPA

[4] = molecular target: T2, VEGFR1 (mouse, endogenous in MAEC, MVEC, trigeminal ganglion neurons and mouse tissues) (mouse (endogenous in MAEC, MVEC, trigeminal ganglion neurons and mouse tissues)); test: co-IP; mouse tissue lysates (thoracic aorta, portal vein, dorsal root ganglia, trigeminal ganglia, cornea) immunoprecipitated with rat anti-VEGFR1 on Protein G Dynabeads, blot probed with anti-VEGFR2
[5] = molecular target: T1, VEGFR1 (rat, endogenous in PC12 neuronal cells) (rat (endogenous in PC12)); test: proximity ligation; Duolink PLA on fixed PC12 neuronal cells; anti-VEGFR1 and anti-VEGFR2 with PLUS and MINUS probes (the same antibody with both probes for homodimers); signal only within 40 nm

Molecule: VEGFR2 (human, endogenous in HUVEC) (from UniProt P35968 20-1356) (receptor)
binding [1]: binds

B2: VEGFR1 (rat, endogenous in PC12 neuronal cells) (receptor, UniProt P53767 23-1336)
chain: YCSGSKLKGPELSLKGTQHVMQAGQTLFLKCRGEAAHSWSLPTTVSQEDKKLSVTRSACGRNNRQFCSTLTLNMAQANHTGLYSCRYLPKSTSKEKKMESAIYIFVSDAGSPFIEMHSDIPKLVHMTEGRELIIPCRVTSPNITVTLKKFPFDALTPDGQRIAWDSRRGFIIANATYKEIGLLTCEATVNGHLYQTSYLTHRQTNTILDVQISPPSPVRFLRGQTLVLNCTVTTDLNTRVQMSWNYPGKATKRASIRQRIDQSNPHSNVFHSVLKINNVESRDKGLYTCRVKSGSSFRTFNTSVHVYEKGFISVKHRKQQVQETIAGKRSHRLSMKVKAFPSPEVVWLKDGVPATEKSARYSVHGYSLIIKDVTAEDAGDYTILLGIKQSKLFRNLTATLIVNVKPQIYEKSVSSLPSPPLYPLGSRQVLTCTVYGIPQPTIKWLWHPCHYNHSKERNDFCFGSEESFILDSSSNIGNRIEGITQRMMVIEGTNKTVSTLVVADSRTPGSYSCKAFNKIGTVERDIRFYVTDVPNGFHVSLEKIPTEGEDLKLSCVVSKFLYRDITWILLRTVNNRTMHHSISKQKMATTQDYSITLNLVIKNVSLEDSGTYACRARNIYTGEEILRKTEVLVRDLEAPLLLQNLSDHEVSISGSTTLDCQARGVPAPQITWFKNNHKIQQEPGIILGPGNSTLFIERVTEEDEGVYRCRATNQKGVVESSAYLTVQGTSDKSNLELITLTCTCVAATLFWLLLTLFIRKLKRSSSEVKTDYLSIIMDPDEVPLDEQCERLPYDASKWEFARERLKLGKSLGRGAFGKVVQASAFGIKKSPTCRTVAVKMLKEGATASEYKALMTELKILTHIGHHLNVVNLLGACTKQGGPLMVIVEYCKYGNLSNYLKSKRDFFCLNKDAALHMEPKKEKLEPDLEQDQKPRLDSVSSSESFTSSGFQEDKSVSDVEGGEDYSEISKQPLTMEDLISYSFQVARGMEFLSSRKCIHRDLAARNILLSENNVVKICDFGLARDIYKNPDYVRRGDTRLPLKWMAPESIFDKVYSTKSDVWSYGVLLWEIFSLGGSPYPGVQMDEDFCSRLKEGMRMRTPEYATPEIYQIMLDCWHKDPKERPRFAELVEKLGDLLQANVQQDGKDYIPLNAILTRNSGFTYSVPTFSEDFFKDGFTDPKFHSGSSDDVRYVNAFKFMSLERIKTFEELSPNATSMFEDYHLDTSSLLTSPLLKRFTWTETKPKASMKIDLRITSKSKEAGLSDLPGPSFCFSSCGHIRPVRQEDEDDPELGKESCCSPPPDYNSVVLYSSPPA
binding [5]: binds weakly

Results, then the molecule that gave them:

binding [2]: binds
Molecule: VEGFR2 (rat, endogenous in PC12 neuronal cells) (from UniProt O08775 20-1343) (receptor)

binding [3]: binds
binding [4]: binds
B1: VEGFR2 (mouse, endogenous in MAEC, MVEC, trigeminal ganglion neurons and mouse tissues) (receptor, UniProt P35918 20-1345, looked up)
chain: ASVGLPGDFLHPPKLSTQKDILTILANTTLQITCRGQRDLDWLWPNAQRDSEERVLVTECGGGDSIFCKTLTIPRVVGNDTGAYKCSYRDVDIASTVYVYVRDYRSPFIASVSDQHGIVYITENKNKTVVIPCRGSISNLNVSLCARYPEKRFVPDGNRISWDSEIGFTLPSYMISYAGMVFCEAKINDETYQSIMYIVVVVGYRIYDVILSPPHEIELSAGEKLVLNCTARTELNVGLDFTWHSPPSKSHHKKIVNRDVKPFPGTVAKMFLSTLTIESVTKSDQGEYTCVASSGRMIKRNRTFVRVHTKPFIAFGSGMKSLVEATVGSQVRIPVKYLSYPAPDIKWYRNGRPIESNYTMIVGDELTIMEVTERDAGNYTVILTNPISMEKQSHMVSLVVNVPPQIGEKALISPMDSYQYGTMQTLTCTVYANPPLHHIQWYWQLEEACSYRPGQTSPYACKEWRHVEDFQGGNKIEVTKNQYALIEGKNKTVSTLVIQAANVSALYKCEAINKAGRGERVISFHVIRGPEITVQPAAQPTEQESVSLLCTADRNTFENLTWYKLGSQATSVHMGESLTPVCKNLDALWKLNGTMFSNSTNDILIVAFQNASLQDQGDYVCSAQDKKTKKRHCLVKQLIILERMAPMITGNLENQTTTIGETIEVTCPASGNPTPHITWFKDNETLVEDSGIVLRDGNRNLTIRRVRKEDGGLYTCQACNVLGCARAETLFIIEGAQEKTNLEVIILVGTAVIAMFFWLLLVIVLRTVKRANEGELKTGYLSIVMDPDELPLDERCERLPYDASKWEFPRDRLKLGKPLGRGAFGQVIEADAFGIDKTATCKTVAVKMLKEGATHSEHRALMSELKILIHIGHHLNVVNLLGACTKPGGPLMVIVEFCKFGNLSTYLRGKRNEFVPYKSKGARFRQGKDYVGELSVDLKRRLDSITSSQSSASSGFVEEKSLSDVEEEEASEELYKDFLTLEHLICYSFQVAKGMEFLASRKCIHRDLAARNILLSEKNVVKICDFGLARDIYKDPDYVRKGDARLPLKWMAPETIFDRVYTIQSDVWSFGVLLWEIFSLGASPYPGVKIDEEFCRRLKEGTRMRAPDYTTPEMYQTMLDCWHEDPNQRPSFSELVEHLGNLLQANAQQDGKDYIVLPMSETLSMEEDSGLSLPTSPVSCMEEEEVCDPKFHYDNTAGISHYLQNSKRKSRPVSVKTFEDIPLEEPEVKVIPDDSQTDSGMVLASEELKTLEDRNKLSPSFGGMMPSKSRESVASEGSNQTSGYQSGYHSDDTDTTVYSSDEAGLLKMVDAAVHADSGTTLRSPPV
notes: Endogenous protein; also called KDR; flk-1; source: endogenous, MAEC and MVEC lysates; endogenous, mouse tissue lysates (thoracic aorta, portal vein, dorsal root ganglia, trigeminal ganglia, cornea); endogenous, fixed MAEC, MVEC and trigeminal ganglion neuronal cells
